# Library screen at single concentrations

T. brucei: 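Whole-parasite assay of Trypanosoma brucei over 72 hours; the read-out is not stated. Tested at 30 µM. Higher reads as stronger inhibition (inferred: compounds with an IC50 in retests scored well above the rest). Values scatter widely below zero; nearly all retest evidence comes from the higher of the two concentrations used. Size under these conditions: about 64,000 compounds, about 940 of them at 50% or above in at least one test.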
Leishmania in macrophages: 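Cell assay of Leishmania donovani living inside macrophages; the read-out is not stated. Tested at 30 µM. Higher reads as stronger inhibition (inferred: compounds with an IC50 in retests scored well above the rest). About 69,000 compounds were tested under these conditions; 1.5% (about 1,000) showed 50% or more at least once.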
Toxoplasma: 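Assay of Toxoplasma gondii numbers, read through their beta-galactosidase reporter with a colour substrate. Tested at 10 µM. Higher reads as fewer parasites (inferred from which compounds were picked for retests). About 67,000 compounds were tested under these conditions; 0.38% (about 260) showed 50% or more at least once.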

Each number is a percent effect as filed. How 0% and 100% were set is not recorded. Most values in the screen are low, and negative values occur. The compounds are a random part of those screened. Two or more numbers in one place are separate tests of the same structure; such repeats can differ widely.

SMILES: CC1CCN(CCCNS(=O)(=O)Cc2ccccc2F)CC1
T. brucei: -5.994
Leishmania in macrophages: -7.19
Toxoplasma: -15.99

SMILES: Cn1c(-c2ccccc2Cl)nc2cc(C(=O)NCC3(C)COC3)cnc21
T. brucei: -50.22
Leishmania in macrophages: -7.636
Toxoplasma: 10.38

SMILES: CC(C)OCCNC(=O)C1CCC(=O)N(C2CCCC2)C1 (centres undefined)
T. brucei: 9.37
Leishmania in macrophages: 2.053
Toxoplasma: -6.524

SMILES: CCc1nccn1CCCNC(=O)c1cnn(-c2ccccc2OC)c1
T. brucei: -29.69
Leishmania in macrophages: 14.36

SMILES: CCc1nc(N2CCCC(CO)(CCOC)C2)ncc1C (centres undefined)
T. brucei: 4.014
Leishmania in macrophages: 5.402
Toxoplasma: 4.08

SMILES: CCCSCC(=O)N1CCC2(CC1)CC(c1ccccc1)CN(C)C2 (centres undefined)
T. brucei: -27.25
Leishmania in macrophages: 8.394
Toxoplasma: -11.02

SMILES: CCOC(=O)c1sc(NC(=O)CN2C(=O)CCC2=O)c(C#N)c1C
T. brucei: -4.154
Leishmania in macrophages: -31.78
Toxoplasma: 3.859

SMILES: NC(=O)CN1CCC(c2cncc(-c3cccc(Cl)c3)n2)CC1
T. brucei: -11.3
Leishmania in macrophages: -3.795
Toxoplasma: 12.18

SMILES: CS(=O)(=O)c1ccc(NC(=O)N2CCc3sccc3C2)cn1
T. brucei: -2.753
Leishmania in macrophages: 7.952
Toxoplasma: 0.2878

SMILES: CN1CCCC1c1cncc(C(=O)NCCN2CCCC2)n1 (centres undefined)
T. brucei: -0.5532
Leishmania in macrophages: 21.07
Toxoplasma: 15.49

SMILES: COc1c(C2CCCN2CC(=O)N2CCCCC2)c(C)nn1C (centres undefined)
T. brucei: -46.94
Leishmania in macrophages: -11.37
Toxoplasma: -3.024

SMILES: [H][C@]12CCCCN1CCC[C@H]2CNC(=O)CCn1ccc2cc(C)ccc21
T. brucei: 12.49
Leishmania in macrophages: 28.72
Toxoplasma: 5.499

SMILES: COc1ccc2c(C)c(C(=O)NC3CCN(S(C)(=O)=O)CC3)oc2c1
T. brucei: -18.54
Leishmania in macrophages: 9.178
Toxoplasma: 13.5

SMILES: CCn1nnnc1-c1cccc(NC(=O)CCOC(C)C)c1
T. brucei: -18.96
Leishmania in macrophages: 1.896
Toxoplasma: -5.98

SMILES: Cc1nccn1C1CCCN(C(=O)c2ccc(N3CCCC3)nn2)C1 (centres undefined)
T. brucei: 18.49
Leishmania in macrophages: 21.84
Toxoplasma: 3.578

SMILES: O=C(NCc1cnc2n1CCN(Cc1ccoc1)C2)c1ccno1.O=C(O)C(F)(F)F
T. brucei: -16.59
Leishmania in macrophages: 15.84
Toxoplasma: 18.02

SMILES: O=C(C1CCC1)N1CCC(=O)N(C2CC2)Cc2cc(F)ccc21
T. brucei: -23.3
Leishmania in macrophages: -8.955
Toxoplasma: -3.474

SMILES: [H][C@]12C[C@H](CN(C)C)O[C@@]1([H])CN(C(=O)c1ccco1)C2
T. brucei: -86.47
Leishmania in macrophages: 20.77
Toxoplasma: 1.33

SMILES: COCCC(=O)N1CC2(CCN(Cc3ccccc3Cl)CC2)C1.O=C(O)C(F)(F)F
T. brucei: -15.14
Leishmania in macrophages: 19.92
Toxoplasma: -3.592

SMILES: Cc1c(CN2CCCC(n3c(=O)oc4ccccc43)C2)cnn1C (centres undefined)
T. brucei: -10.43
Leishmania in macrophages: 8.417
Toxoplasma: 7.096

SMILES: COC[C@@H]1CCCN1C(=O)c1cc(-c2cccc(OC)c2)n[nH]1
T. brucei: -15.83
Leishmania in macrophages: 15.97
Toxoplasma: 7.078

SMILES: CC(C)N[C@@H]1CO[C@H](CNC(=O)Nc2ccccc2)[C@H]1O
T. brucei: -7.374
Leishmania in macrophages: 15.45
Toxoplasma: -4.411

SMILES: O=C(O)C(F)(F)F.O=C(O)C(F)(F)F.[H][C@@]12C[C@H](C(=O)N3CCCCO3)CN(Cc3ccccc3F)[C@]1([H])CCO2
T. brucei: -61.9
Leishmania in macrophages: 46.02
Toxoplasma: -20.34

SMILES: O=C(O)C(F)(F)F.[H][C@@]12CCCO[C@]1([H])[C@H](NC(=O)c1nccn1C)CN2Cc1ccoc1
T. brucei: -99.44
Leishmania in macrophages: -6.24
Toxoplasma: 6.738

SMILES: [H][C@]12CCCCN1CCC[C@H]2COc1ccc2c(c1)OCCO2
T. brucei: 7.343
Leishmania in macrophages: 39.6
Toxoplasma: 3.278

SMILES: COCCC(=O)N1CCCC([C@@H]2C[C@H](C(F)F)n3ncnc3N2)C1 (some centres undefined)
T. brucei: 2.668
Leishmania in macrophages: 5.437
Toxoplasma: 16.11

SMILES: O=C(N[C@@H]1CN(Cc2cccc(F)c2)C[C@H]1O)c1cscn1
T. brucei: -9.155
Leishmania in macrophages: 10.52 & -1.991
Toxoplasma: -8.647

SMILES: Cc1noc(CC2CCN(C(=O)C(c3ccccc3C)N(C)C)CC2)n1 (centres undefined)
T. brucei: -35.97
Leishmania in macrophages: 27.73
Toxoplasma: 8.443

SMILES: [H][C@@]12CCCN1C[C@H](CCSC)N(Cc1cnn(CCC)c1C)C2
T. brucei: -32.7
Leishmania in macrophages: 12.64
Toxoplasma: 7.623

SMILES: CCN(Cc1ccncc1)C(=O)c1cn(CC2CCCNC2)nn1 (centres undefined)
T. brucei: -45.5
Leishmania in macrophages: -11.24
Toxoplasma: -7.735

SMILES: CN(C)C(=O)NCc1ncn2c1CN(S(C)(=O)=O)CCC2
Leishmania in macrophages: 12.87
Toxoplasma: -2.518

SMILES: CCc1c(C)[nH]c(C(C)(C)N)nc1=O.Cl
T. brucei: 5.612
Leishmania in macrophages: 16.92
Toxoplasma: -8.872

SMILES: [H][C@]12CCN(C(=O)c3cc(C)on3)CC[C@@]1([H])S(=O)(=O)N(C)C2
T. brucei: -7.155
Leishmania in macrophages: 11.99
Toxoplasma: 11.72

SMILES: O=C(O)C(F)(F)F.[H][C@@]12CN(C(=O)Cc3cccs3)C[C@]1([H])OCCN2CC1CCCC1
T. brucei: 11.85
Leishmania in macrophages: 8.205
Toxoplasma: 8.926

SMILES: COCCCN1CCC(CNc2nccc(-c3cnn(C)c3)n2)C1 (centres undefined)
T. brucei: -89.67
Leishmania in macrophages: 12.67
Toxoplasma: 10.54

SMILES: O=C(c1cncc(N2CCC3(CCCNC3)C2)n1)N1CCCC1 (centres undefined)
T. brucei: -3.619
Leishmania in macrophages: 16.15
Toxoplasma: 5.485

The last 3 entries again:

O=C(O)C(F)(F)F.[H][C@@]12CN(C(=O)Cc3cccs3)C[C@]1([H])OCCN2CC1CCCC1 read T. brucei: 11.85%; Leishmania in macrophages: 8.205%; Toxoplasma: 8.926%.
COCCCN1CCC(CNc2nccc(-c3cnn(C)c3)n2)C1 (centres undefined) read T. brucei: -89.67%; Leishmania in macrophages: 12.67%; Toxoplasma: 10.54%.
O=C(c1cncc(N2CCC3(CCCNC3)C2)n1)N1CCCC1 (centres undefined) read T. brucei: -3.619%; Leishmania in macrophages: 16.15%; Toxoplasma: 5.485%.

From ChEMBL document CHEMBL3988442, “University of Dundee, Small-Polar-MMV Screening Library” (2021).